# PubChem BioAssay AID504648 (National Center for Advancing Translational Sciences (NCATS), 2011)
# In all, about 390,000 compounds went through this assay and about 610 (0.16%) were called active. The shares of active, inactive and inconclusive entries below differ from those in the screen. Calls come from the whole dose curve; as a rule, active = well fitted inhibition curve with a large enough effect; inconclusive = small, poorly fitted or top-dose-only effect, or effect the other way, or another doubt; inactive = no such curve, though single readings can be large or run the other way. Where the call is inconclusive, the potency comes from a doubtful curve fit.
# Experiment: Nrf2 qHTS screen for inhibitors: counterscreen for cytotoxicity
# Details: A549 ARE-Fluc cells, CellTiter-Fluor viability, 18-24 h; activity change, negative = cytotoxicity: at 46 µM (top of the series)
# How it was run: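 A549 ARE_Fluc cells in 5% FBS OPTI-MEM were exposed to compounds in concentration-response for 18-24 h at 37 deg C. Viability was read by CellTiter-Fluor fluorescence (Ex 405/Em 525) after 30 min, before the luciferase read.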
# % is set by controls: 0 for no effect and ±100 for the full control effect; potency is the fitted concentration of half-maximal effect.
SMILES,"activity change, negative = cytotoxicity",Potency
CCN(CC)C(=O)Cn1cc(C(=O)C(=O)NCCc2c[nH]c3ccccc23)c2ccccc21,inactive: -21.8%,–
CC1CCN(CC(O)COc2ccc(-c3ccccc3)cc2)CC1 (centres undefined),–,"inconclusive: 29.1 µM [falling, single point]"
Cc1ccccc1N(CC(=O)N1CCc2ccccc2C1)S(C)(=O)=O,–,"inconclusive: 4.61 µM [falling, partial curve, poor fit]"
CCOC(=O)c1[nH]c2c(c1Cc1ccccc1)C(=O)CC(c1ccc(OC)cc1)C2 (centres undefined),inactive: -3.76%,–
Cc1ccc(NC(=O)CN2C(=O)COc3ccc(S(=O)(=O)N4CCCCCC4)cc32)cc1C,–,"inconclusive: 29.1 µM [falling, partial curve, poor fit]"
CCCc1nc2ccccc2c(=O)n1/N=C/c1c(C)[nH]n(-c2ccc(C)cc2)c1=O,–,"inconclusive: 4.61 µM [falling, full curve]"
Cc1cc(C)cc(NC(=O)CN(C)S(=O)(=O)c2ccc3[nH]c4c(c3c2)CCCC4)c1,–,"inconclusive: 20.6 µM [falling, partial curve, poor fit]"
COc1ccc(NC(=O)c2cc(C3CC3)nc3c2cnn3C(C)C)cc1OC,–,"inconclusive: 29.1 µM [falling, single point]"
COc1ccc(-c2onc(C)c2C)cc1S(=O)(=O)NCc1ccc(Br)cc1,–,"inconclusive: 20.6 µM [falling, partial curve, poor fit]"
Cc1ccc(C(=O)NN(C)c2nc3ccccc3nc2C(F)(F)F)cc1,–,"inconclusive: 3.66 µM [falling, partial curve, poor fit]"
CCN(CC)CCn1nc2c3c(cccc3c1=O)-c1ccccc1-2,–,active: 13 µM
CN(C)C(C)(C)C#CCCCCC#CC(C)(C)N(C)C,–,"inconclusive: 32.6 µM [falling, single point]"
CC(C)c1ccc(CNc2ncccn2)cc1,inactive: 4.06%,–
COc1cccc(C2CC(=O)Nc3c2c(=O)n(C)c2ncnn32)c1OC (centres undefined),inactive: -12%,–
CCOc1ccc(CN(C)C(=O)[C@H](Cc2ccccc2)NC(=O)OCc2ccccc2)cc1OC,–,"inconclusive: 18.4 µM [falling, single point]"
Cc1ccc(C)c(OCCn2cc(/C=C(/C#N)C(=O)NCC3CCCO3)c3ccccc32)c1 (centres undefined),–,"inconclusive: 18.4 µM [falling, single point]"
CC(C)(C)N/N=C/c1cc(Cl)cc([N+](=O)[O-])c1O,inactive: -8.07%,–
CC(C)c1ccc2c(c1)C1(NN=C(c3ccccc3)S1)C(=O)N2 (centres undefined),–,"inconclusive: 20.6 µM [falling, single point]"
O=C(NCCc1csc(-c2cccc(F)c2)n1)c1ccc(Br)o1,–,"inconclusive: 16.4 µM [activator, partial curve, poor fit]"
CCc1ccc(-c2nn(Cc3ccccc3)cc2C(=O)NCC2CCCO2)cc1 (centres undefined),inactive: -2.7%,–
COc1ccc(Cl)cc1N(CC(=O)N1CCC(C)CC1)S(C)(=O)=O,–,"inconclusive: 25.9 µM [falling, partial curve, poor fit]"
COc1c(N2CCN(C(=S)NCc3ccccc3)C(C)C2)c(F)cc2c(=O)c(C(=O)O)cn(C3CC3)c12 (centres undefined),–,"inconclusive: 25.9 µM [falling, partial curve, poor fit]"

SMILES,"activity change, negative = cytotoxicity",Potency
CCc1ccc(NC(=O)c2ccc(F)c(S(=O)(=O)N(C)C3CCCCC3)c2)cc1,–,"inconclusive: 29.1 µM [falling, single point]"
CC(C)C[C@H](N)c1cn([C@@H](CCCCN)C(=O)N2CCNCC2)nn1,–,"inconclusive: 2.06 µM [falling, partial curve, poor fit]"
O=C(Nc1ccccc1)C1C2CCC3C(CCC21)C3(Cl)Cl (centres undefined),–,"inconclusive: 10.3 µM [falling, partial curve, poor fit]"
CCCCN(Cc1ccco1)S(=O)(=O)c1csc(C(N)=O)c1,inactive: 1.11%,–
O=C(c1c(F)c(F)c(F)c(F)c1F)N1CCN(c2cccc(C(F)(F)F)c2)CC1,–,"inconclusive: 25.9 µM [falling, partial curve, poor fit]"
COc1cccc(C2C=C(c3ccc(OC)cc3OC)Nc3nnnn32)c1 (centres undefined),–,"inconclusive: 25.9 µM [activator, partial curve, poor fit]"
O=C1/C(=C\c2ccc(Br)o2)SC(=Nc2ccccc2)N1c1ccccc1,–,"inconclusive: 8.2 µM [falling, partial curve, poor fit]"
CN1C(=O)C2C3c4ccccc4C(c4ccccc43)[C@@H]2C1=O (some centres undefined),inactive: -2.08%,–
CCOC(=O)c1c(C)n(S(=O)(=O)c2ccc(C)cc2)c2ccc(O)c(C(=O)O)c12,inactive: 0.28%,–
CCOC(=O)N1CCC(NC(=O)CCc2c(C)nc3c(c(C)nn3C(C)(C)C)c2C)CC1,–,"inconclusive: 29.1 µM [falling, single point]"
CC12CCC(C(=O)Nc3ncc([N+](=O)[O-])s3)(OC1=O)C2(C)C (centres undefined),–,"inconclusive: 13 µM [falling, partial curve]"
CCn1c(CSc2nnc(C)n2-c2ccccc2)nc2cc(S(=O)(=O)N(C)C)ccc21,–,"inconclusive: 32.6 µM [activator, partial curve, poor fit]"
CCCCNS(=O)(=O)c1ccc(NC(=O)C(Sc2ccccc2)c2ccccc2)cc1 (centres undefined),–,"inconclusive: 32.6 µM [falling, partial curve, poor fit]"
CC1(c2ccccc2)CC(C)(C)N(C(=O)CSc2nnc(N)s2)c2ccccc21 (centres undefined),–,"inconclusive: 29.1 µM [falling, single point]"
Cc1c(Cl)sn(-c2ccc(Cl)cc2)c1=O,–,"inconclusive: 29.1 µM [falling, single point]"
COc1ccccc1NC(=O)c1oc2ccccc2c1NC(=O)c1ccccc1C(F)(F)F,inactive: -0.776%,–
Cc1cc2nc(-c3ccc(OCc4ccc(F)cc4)cc3)cc(C(F)(F)F)n2n1,inactive: 1.39%,–
CCN(C(=O)COC(=O)c1ccc2ccccc2c1)c1c(N)n(Cc2ccccc2)c(=O)[nH]c1=O,–,"inconclusive: 29.1 µM [falling, single point]"
O=c1c2ccccc2nc(/C=C/c2ccc(Cl)cc2)n1CCO,inactive: 3.37%,–
COC(=O)c1sccc1NC(=O)CN(C)NS(=O)(=O)c1ccc(F)cc1,–,"inconclusive: 6.51 µM [activator, partial curve, poor fit]"
O=C(CCC(=O)OCC(=O)c1cccc([N+](=O)[O-])c1)Nc1ccccc1Cl,–,"inconclusive: 6.51 µM [activator, single point]"
CC(=O)NC(NC(=S)Nc1ccc(C)cc1C)C(Cl)(Cl)Cl (centres undefined),inactive: -9.2%,–

# A few values from the list.
# Potency with Cc1c(Cl)sn(-c2ccc(Cl)cc2)c1=O reads inconclusive: 29.1 µM [falling, single point]
# Potency with CC1(c2ccccc2)CC(C)(C)N(C(=O)CSc2nnc(N)s2)c2ccccc21 (centres undefined) reads inconclusive: 29.1 µM [falling, single point]
# Potency with Cc1ccc(NC(=O)CN2C(=O)COc3ccc(S(=O)(=O)N4CCCCCC4)cc32)cc1C reads inconclusive: 29.1 µM [falling, partial curve, poor fit]

# Further compounds:

SMILES,"activity change, negative = cytotoxicity",Potency
CCCC(=O)NC(c1cccs1)c1cc([N+](=O)[O-])c2cccnc2c1O (centres undefined),–,"inconclusive: 16.4 µM [falling, single point]"
COc1ccc(-n2c(/C=C/c3cccc4ccccc34)nc3ccccc3c2=O)cc1Cl,inactive: 0.149%,–
C=CCn1c(SCC(=O)N2CCc3ccccc3C2)nc2sc(C)c(C)c2c1=O,–,"inconclusive: 23.1 µM [falling, partial curve, poor fit]"
O=C(O)CCn1c(O)c(C=C2N=c3ccccc3=N2)sc1=S,–,"inconclusive: 18.4 µM [falling, partial curve]"
O=C(CCCc1nc(-c2ccc(Cl)cc2)no1)NC1CCCC1,inactive: -17.5%,–
C/C(=N\NC(=O)CCc1ccccc1)C1C(=O)c2ccccc2C1=O,inactive: -18.8%,–
COc1ccc(S(=O)(=O)N2CCCCCC2)cc1C(=O)N(C)Cc1ccc(C(C)(C)C)cc1,–,"inconclusive: 29.1 µM [falling, single point]"
CCCCCCSc1ccc(-c2nc3cnccn3c2NCCCC)cc1,–,"inconclusive: 29.1 µM [falling, single point]"
COc1ccccc1NC(=S)N(Cc1cccs1)C1CCCC1,–,"inconclusive: 29.1 µM [falling, single point]"
COc1ccc(CN(CCC(c2ccccc2)c2ccc(OC(C)C)cc2)C(=O)CCl)cc1OC (centres undefined),–,"inconclusive: 23.1 µM [falling, partial curve, poor fit]"
N#C/C(=C\c1cc(O)c(O)c(O)c1)C(N)=O,–,"inconclusive: 20.6 µM [falling, single point]"
CCN1/C(=C2\C(=O)N(C)C(=S)N2C)C=Cc2cc(C)ccc21,–,"inconclusive: 23.1 µM [falling, partial curve]"
O=C1NC2c3c(Cl)sc(Cl)c3C(=O)C2O1 (centres undefined),inactive: 2.81%,–
O=C(O)CCCCCN1C(=O)/C(=C/c2cn(-c3ccccc3)nc2-c2cccs2)SC1=S,–,"inconclusive: 20.6 µM [falling, single point]"
COC(CNC(=O)c1cccc(-n2c(=S)[nH]c3cc(Cl)ccc3c2=O)c1)OC,inactive: -3.96%,–
CCc1ccc2nc(N(CCCN(C)C)C(=O)c3ccc(S(=O)(=O)N(C)C4CCCCC4)cc3)sc2c1,–,"inconclusive: 20.6 µM [falling, single point]"
C#CCOCCOCCOCCNc1nc(N2CCN(C(=O)CCCCCCCCCCNC(=O)[C@H](CCCCN)n3cc(C[C@@H](C)CC)nn3)CC2)nc(N2CCN(C(=O)CCCCCCCCCCNC(=O)[C@H](CCCN=C(N)N)n3cc(C[C@@H](C)CC)nn3)CC2)n1,–,"inconclusive: 29.1 µM [falling, single point]"
CCn1c(=O)n(CC)c2cc(N3CCCC3)c(NC(=O)c3ccccc3OC)cc21,–,"inconclusive: 20.6 µM [falling, single point]"
Cc1ccc(NS(=O)(=O)c2cc3c(cc2/C=C/c2ccccc2)NC(=O)CO3)cc1C,inactive: 0.63%,–
CCN(CC)CCN1C(=O)C(=O)/C(=C(/O)c2ccc(OC)c(OC)c2)C1c1ccccn1 (centres undefined),–,"inconclusive: 20.6 µM [falling, partial curve, poor fit]"
